# According to the supplement of paper PMC3334620:
# Over roughly 33,000 sequences, “E-score (-0.5 to 0.5)” has its median near -0.0014; the highest 2% begin near 0.25. This is one part of the list.
# Biological target: T1, Cad1 (UniProt P24813)
# T1 sequence: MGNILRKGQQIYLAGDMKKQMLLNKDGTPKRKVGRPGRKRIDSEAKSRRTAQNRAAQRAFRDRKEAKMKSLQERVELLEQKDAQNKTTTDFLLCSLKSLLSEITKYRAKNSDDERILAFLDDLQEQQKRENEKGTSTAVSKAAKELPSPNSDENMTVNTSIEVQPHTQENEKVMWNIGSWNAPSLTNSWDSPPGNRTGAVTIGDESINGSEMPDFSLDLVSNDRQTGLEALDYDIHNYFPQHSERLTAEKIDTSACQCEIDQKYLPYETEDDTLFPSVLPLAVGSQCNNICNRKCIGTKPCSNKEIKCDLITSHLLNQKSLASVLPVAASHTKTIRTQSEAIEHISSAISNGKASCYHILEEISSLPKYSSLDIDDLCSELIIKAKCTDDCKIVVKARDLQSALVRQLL
# Assay: PBM E-score (8-mer binding enrichment) (E-score (-0.5 to 0.5)); higher = stronger / more preferred TF binding
# Settings: protein concentration: 100 nM; construct: GST-full length
# In short: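 Yeast transcription factors carrying a GST tag, as full-length proteins or DNA-binding domains, were produced by PURExpress in vitro transcription/translation. About 100-200 nM protein was applied to universal all-10-mer Agilent arrays, double-stranded by primer extension on fresh or once-stripped slides. Bound protein was detected with fluorescent anti-GST, and scans were normalised with masliner. The Universal PBM Analysis Suite gave each ungapped eight-base word, pooled with its reverse complement, an E-score, a modified Wilcoxon-Mann-Whitney statistic.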
row,Sequence,PBM E-score
1,ACCTGTTA,-0.234
2,ACTTTTGC,-0.0594
3,AAGTTGCT,0.0232
4,CTAGCGTA,-0.176
5,AGACTAGC,-0.196
6,ACCCGCCG,0.182
7,GCTAAGGA,-0.141
8,ACAGGACA,0.154
9,CGCACTGA,0.00933
10,GGACACTA,0.0742
11,AGTATCGA,0.22
12,ACACCCAA,0.124
13,AGGCATTG,-0.0293
14,TACGAATA,0.207
15,CGACAGCG,-0.19
16,CTGACGGA,-0.0188
17,ACACCAAG,-0.0199
18,AATCGAGC,-0.00781
19,CACGGCGA,-0.122
20,CCTTCACA,-0.00607
21,AACTTCTG,-0.0167
22,CCGCGTAC,0.128
23,ACCGACGC,-0.158
24,CCAAGGGA,-0.142
25,CCCACACC,-0.0107

row,Sequence,PBM E-score
1,ACTACTCC,-0.0256
2,GATGTATA,0.0792
3,TCCTGGAA,-0.164
4,AGCAGCAT,-0.0594
5,CGAGCTGA,0.197
6,AGGTGACC,-0.198
7,GGTGTTCA,-0.0312
8,ACAGCTCG,0.0849
9,GACCTTCA,-0.0815
10,CGACTGCC,-0.0904
11,ATTAAACG,0.12
12,CTAGTAAA,0.0669
13,ACAGGCGA,-0.191
14,AAAGTCGT,-0.0468
15,AAGCGGCT,0.126
16,ATCCCAAC,-0.116
17,CAAAACTG,0.114
18,CTATCGTC,0.0408
19,ACGAAAAC,0.259
20,CTGGCTTC,-0.13
21,TAGCGCTA,0.089
22,ATCGGTAC,-0.098
23,ATCATAGA,0.146
24,AAGGACGT,0.0907
25,TATGGGGA,0.0948

row,Sequence,PBM E-score
1,ACATGCCG,0.11
2,CGAAGGCA,-0.155
3,ATGTTGGC,0.0612
4,AAGTGACC,-0.186
5,ATTTCAGG,0.0368
6,GCCATTGA,0.0445
7,CCAACTTA,-0.0068
8,GAAGCTGC,-0.033
9,CCTTTGAC,-0.185
10,CTCTTGGC,-0.181
11,CGCGTCAC,0.0475
12,ATGTCACA,0.306
13,TGATGGAA,0.0626
14,AATGTGAG,0.0772
15,GTTTAAAA,0.125
16,AAGACTAA,-0.0994
17,TCAGCCAA,0.0189
18,ATCTCGCA,0.0847
19,AGAATGCG,0.0274
20,AGCAGCCG,0.0809
21,CGGTTGAC,-0.106
22,AGATTCTG,-0.0272
23,GATTGCGA,0.141
24,CATATCAG,-0.00093
25,CAGACCCA,-0.175

# Retrieved one by one from the list above:
row,Sequence,PBM E-score
8,ACAGCTCG,0.0849
16,AAGACTAA,-0.0994
13,ACAGGCGA,-0.191

# More results:

row,Sequence,PBM E-score
1,CTGCTAGA,-0.0427
2,CGTAAAGA,-0.0421
3,CCCGGCCG,-0.0863
4,GCGTCCTA,0.139
5,AATACTGG,0.0126
6,CCCAGCAC,-0.127
7,CATACATC,0.143
8,GGGTACCC,-0.345
9,CAAAGCCA,-0.0984
10,AGGGGAGG,-0.0822
11,ATCCACAT,0.0877
12,AAACAGTG,0.0909
13,CGCGGTGC,0.0246
14,CTTCCTGA,0.0545
15,AGCGTCCA,0.0957
16,AATATTTG,0.255
17,CAACTTCG,0.0196
18,ACCCGACA,-0.0696
19,CCTATATA,0.0293
20,CGATTGAC,0.156
21,ATACGGGA,-0.193
22,AGACTCCG,-0.117
23,CAAGCTAA,-0.198
24,ACGCCAGA,-0.0478
25,AGTTTCGC,0.155

row,Sequence,PBM E-score
1,ACCTTAAC,0.0691
2,GGTGTATA,-0.161
3,GATGCCAC,-0.103
4,ACCAGCCC,-0.142
5,ATTAAGAG,-0.00018
6,AACCGTCC,-0.089
7,AGCGCGGG,0.158
8,CCGAAGCA,-0.106
9,CAACATTG,0.0388
10,CACCACAC,0.151
11,CGTGACAG,0.0078
12,ATCCGACA,0.0887
13,AGACGATG,0.104
14,GACTTTCC,-0.0901
15,CATGTAGA,0.0561
16,GCTGGATA,0.0235
17,ATCTGCAC,-0.00473
18,CCCGCTAA,-0.205
19,ACCAGGCC,0.212
20,TAAATCGA,0.16
21,GAGGAAAC,-0.0943
22,CAGTGGGG,-0.311
23,CTGCTGTC,-0.0811
24,ATCGAGTC,0.0129
25,AACAGATA,0.175

row,Sequence,PBM E-score
1,ACCTATAA,-0.067
2,GACTTACA,-0.0033
3,CACTAGTA,0.0511
4,GATGCCTA,-0.251
5,GCGGTGCC,-0.171
6,ATTAGTCG,0.205
7,CACATCAG,-0.153
8,GGGTAGTA,-0.184
9,AGTACGCC,-0.293
10,ACGGTCTC,-0.0778
11,CCTAACAC,0.191
12,CGGCTTAG,0.00179
13,ACTCCCTA,-0.107
14,AAGGACAA,0.0988
15,AATTTGTG,0.225
16,AAACTTCT,0.124
17,GGCAAGCC,-0.241
18,TAGCGCAA,0.207
19,GCGTATTA,0.153
20,GTAGCGCA,0.132
21,CCGGCTAA,0.0637
22,CTGGGACA,-0.173
23,AACGCACT,-0.0236
24,GACTAGCA,-0.128
25,AATCGAAT,0.246

# Single values from above.
# Entry for CCAAGGGA under PBM E-score: -0.142
# Entry for CTGCTAGA under PBM E-score: -0.0427
# Entry for ACGCCAGA under PBM E-score: -0.0478
# Entry for CGCGGTGC under PBM E-score: 0.0246
# Entry for GACTAGCA under PBM E-score: -0.128
# Entry for CCCACACC under PBM E-score: -0.0107

# Next entries follow.

row,Sequence,PBM E-score
1,GCCCAGGA,-0.086
2,GCGGCAGC,-0.0727
3,TAACTATA,0.0556
4,CTGCCGCA,-0.0367
5,CTATAATC,0.0668
6,ACGCTGTA,0.127
7,ACGTAGGA,-0.0696
8,CTTTAGAA,0.0493
9,GGCGAAAA,0.0511
10,AGCAGAGA,-0.107
11,ACGAAATG,-0.0259
12,AGCGCCGC,0.069
13,AATGCCGA,0.0466
14,CACCCGAA,0.142
15,GTCGTCGA,-0.119
16,AGAAGGCA,-0.243
17,CCGAGCAC,-0.0401
18,GCATTTAA,0.0157
19,CCATCGCG,0.229
20,GAAGTCCA,-0.121
21,GGGAGCGA,-0.188
22,GATCTAAA,0.0196
